These are yes or no findings as the source states them, for the method shown. Binding seen in cells or lysates may run through a third protein. A yes stands for co-enrichment or nearness to the bait. Other partners may have been found. Tags and fused reporters may be left off the sequences shown.
Target: T1, HA-RNF128 (pCDH-HA-RNF128 lentivirus, TF-1 cells) (UniProt Q8TEB7)
T1 sequence: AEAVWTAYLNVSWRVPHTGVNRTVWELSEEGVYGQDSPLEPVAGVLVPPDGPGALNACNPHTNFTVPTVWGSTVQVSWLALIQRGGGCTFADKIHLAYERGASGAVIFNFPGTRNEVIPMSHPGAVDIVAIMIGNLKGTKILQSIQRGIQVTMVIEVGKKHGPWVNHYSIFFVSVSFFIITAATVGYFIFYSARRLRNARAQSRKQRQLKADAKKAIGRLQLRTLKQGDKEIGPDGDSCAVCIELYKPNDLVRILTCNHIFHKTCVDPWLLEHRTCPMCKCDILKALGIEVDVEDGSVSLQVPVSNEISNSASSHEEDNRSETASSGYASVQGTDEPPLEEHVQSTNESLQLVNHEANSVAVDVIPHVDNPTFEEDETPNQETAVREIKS
Assay: affinity purification with mass spectrometry; TF-1 cells infected with pCDH-HA-RNF128 or pCDH lentivirus; RIPA lysate on anti-HA agarose beads overnight at 4 °C; washed with 1 M NaCl RIPA buffer and PBS; eluate analysed by LC-MS/MS

B1: IL-3 receptor subunit alpha (endogenous, TF-1 cells) (receptor, UniProt P26951 19-378)
chain: TKEDPNPPITNLRMKAKAQQLTWDLNRNVTDIECVKDADYSMPAVNNSYCQFGAISLCEVTNYTVRVANPPFSTWILFPENSGKPWAGAENLTCWIHDVDFLSCSWAVGPGAPADVQYDLYLNVANRRQQYECLHYKTDAQGTRIGCRFDDISRLSSGSQSSHILVRGRSAAFGIPCTDKFVVFSQIEILTPPNMTAKCNKTHSFMHWKMRSHFNRKFRYELQIQKRMQPVITEQVRDRTSFQLLNPGTYTVQIRARERVYEFLSAWSTPQRFECDQEEGANTRAWRTSLLIALGTLLALVCVFVICRRYLVMQRLFPRIPHMKDPIGDSFQNDKLVVWEAGKAGLEECLVTEVQVVQKT
binding: binds
